{"source": "patent US10081641B2", "about": "“Pesticidally active heterocyclic derivatives with sulphur containing substituents” (Syngenta Participations AG, priority 2014, dated 2018)", "note": "Some of these results come from one statement about several compounds together."}
{"system": "Aedes aegypti (Yellow Fever Mosquito)", "assay": "Example B9: Aedes aegypti, dry deposit in tissue culture plates", "format": "in vivo", "settings": "after 48 h; application rate of 200 ppm in ethanol, adult females"}
{"smiles": "CCS(=O)(=O)c1cc(C#C[Si](C)(C)C)cnc1-c1nc2cc(C(F)(F)F)ncc2n1C", "note": "[P1, 2-[5-ethylsulfonyl-6-[3-methyl-6-(trifluoromethyl)imidazo[4,5-c]pyridin-2-yl]-3-pyridyl]ethynyl-trimethyl-silane]", "control of Aedes aegypti": "at least 80%"}
{"smiles": "CCS(=O)(=O)c1cc(C2CC2)cnc1-c1nc2cc(C(F)(F)F)ncc2n1C", "note": "[P7, 2-(5-cyclopropyl-3-ethylsulfonyl-2-pyridyl)-3-methyl-6-(trifluoromethyl)imidazo[4,5-c]pyridine]", "control of Aedes aegypti": "at least 80%"}
{"smiles": "CCS(=O)(=O)c1cc(C#Cc2ccc(Cl)cc2)ccc1-c1nc2cc(C(F)(F)F)ncc2n1C", "note": "[P8]", "control of Aedes aegypti": "at least 80%"}
{"smiles": "CCS(=O)(=O)c1cc(/C=C/c2ccc(C(F)(F)F)cc2)ccc1-c1nc2cc(C(F)(F)F)ncc2n1C", "note": "[P10]", "control of Aedes aegypti": "at least 80%"}
{"smiles": "CCS(=O)(=O)c1cc(C2(C#N)CC2)ccc1-c1nc2cc(C(F)(F)F)ncc2n1C", "note": "[P15, 1-[3-ethylsulfonyl-4-[3-methyl-6-(trifluoromethyl)imidazo[4,5-c]pyridin-2-yl]phenyl]cyclopropanecarbonitrile]", "control of Aedes aegypti": "at least 80%"}
{"smiles": "CCS(=O)(=O)c1cc(C2(C#N)CC2)cnc1-c1nc2cc(C(F)(F)F)ncc2n1C", "note": "[P16]", "control of Aedes aegypti": "at least 80%"}
